Measured values published in PMC4370629, “Structural and Functional Studies of Phosphoenolpyruvate Carboxykinase from Mycobacterium tuberculosis” (PLoS ONE, 2015).
Results are given in words; binding and its absence hold for the method and conditions named.

Protein sequences, listed by entry. Tags and fused reporters are not part of them.
UniProt P9WIH3: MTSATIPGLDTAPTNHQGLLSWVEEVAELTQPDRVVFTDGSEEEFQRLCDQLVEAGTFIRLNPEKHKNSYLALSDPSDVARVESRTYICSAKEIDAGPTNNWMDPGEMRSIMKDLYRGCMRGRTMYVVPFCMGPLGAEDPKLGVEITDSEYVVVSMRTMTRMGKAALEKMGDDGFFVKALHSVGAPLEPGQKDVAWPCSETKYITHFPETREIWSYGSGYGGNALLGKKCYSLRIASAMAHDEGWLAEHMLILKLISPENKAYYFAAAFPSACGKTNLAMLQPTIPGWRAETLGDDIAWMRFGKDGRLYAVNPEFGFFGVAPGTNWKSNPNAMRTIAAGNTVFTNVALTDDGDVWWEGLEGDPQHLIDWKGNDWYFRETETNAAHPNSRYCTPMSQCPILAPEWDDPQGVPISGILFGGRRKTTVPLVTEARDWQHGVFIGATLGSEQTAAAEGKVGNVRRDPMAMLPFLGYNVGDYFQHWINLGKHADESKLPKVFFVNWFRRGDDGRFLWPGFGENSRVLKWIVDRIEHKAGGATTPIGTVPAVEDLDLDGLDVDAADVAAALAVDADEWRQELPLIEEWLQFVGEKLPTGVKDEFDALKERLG

Target: Mycobacterium tuberculosis phosphoenolpyruvate carboxykinase (Mtb Pck) (Mycobacterium tuberculosis) (UniProt P9WIH3)
Assay: SEC; both purified

Mycobacterium tuberculosis phosphoenolpyruvate carboxykinase (Mtb Pck) (from UniProt P9WIH3) (enzyme)
binding: no binding (tested: 13 mg/ml)
